# Where “and” joins values, the source holds several entries; their conditions need not be identical. Equal entries are not always repeated. Structures can show the parent of a compound that is named as a salt.
# Key:
# [1] = Binding of bleomycin to talc, flow cytometry (Example 11); conditions: for Ratio 355/450 (to no-bleomycin control) / Ratio 355/515 (to no-bleomycin control) / Ratio 355/620 (to no-bleomycin control) / Ratio 405/450 (to no-bleomycin control) / Ratio 405/515 (to no-bleomycin control) / Ratio 488/525 (to no-bleomycin control) / Ratio 532/575 (to no-bleomycin control) / Ratio 633/670 (to no-bleomycin control): talc + bleomycin, washed
# [2] = Amount of Avidin saturating 100 mg talc, Pierce total protein assay (Example 4); type: binding
# [3] = Attachment of HRP-labeled avidin to bladder mucosa, microtitre plate bladder platform (Example 33); type: binding, pig
# [4] = Binding Avidin to sterile talc powder, Pierce 660 nm total protein assay of supernatants and washes (Example 3)
compound,measurement,setting,value
"Cc1c(N)nc([C@H](CC(N)=O)NC[C@H](N)C(N)=O)nc1C(=O)N[C@H](C(=O)N[C@H](C)[C@@H](O)[C@H](C)C(=O)N[C@H](C(=O)NCCc1nc(-c2nc(C(=O)NCCC[S+](C)C)cs2)cs1)[C@@H](C)O)[C@@H](O[C@@H]1OC(CO)[C@@H](O)C(O)C1O[C@H]1OC(CO)[C@@H](O)C(OC(N)=O)C1O)c1c[nH]cn1 (stereo partly shown) [Bleomycin, Bleomycin sulfate Streptomyces verticillus]",binding of bleomycin to talc (flow cytometry),"[1]; 25 mg talc, washed 3x PBS",binds to talc and remains on surface of talc even following multiple PBS washes
same,Ratio 355/450 (to no-bleomycin control),[1]; sample 1 mg,1.0
same,Ratio 355/515 (to no-bleomycin control),[1]; sample 1 mg,1.0
same,Ratio 355/620 (to no-bleomycin control),[1]; sample 1 mg,1.3
same,Ratio 405/450 (to no-bleomycin control),[1]; sample 1 mg,0.8
same,Ratio 405/515 (to no-bleomycin control),[1]; sample 1 mg,0.6
same,Ratio 488/525 (to no-bleomycin control),[1]; sample 1 mg,0.9
same,Ratio 532/575 (to no-bleomycin control),[1]; sample 1 mg,1.1
same,Ratio 633/670 (to no-bleomycin control),[1]; sample 1 mg,1.1
same,Ratio 355/450 (to no-bleomycin control),[1]; sample 100 mg,2.3
same,Ratio 355/515 (to no-bleomycin control),[1]; sample 100 mg,1.2
same,Ratio 355/620 (to no-bleomycin control),[1]; sample 100 mg,1.6
same,Ratio 405/450 (to no-bleomycin control),[1]; sample 100 mg,2.4
same,Ratio 405/515 (to no-bleomycin control),[1]; sample 100 mg,2.5
same,Ratio 488/525 (to no-bleomycin control),[1]; sample 100 mg,1.7
same,Ratio 532/575 (to no-bleomycin control),[1]; sample 100 mg,1.6
same,Ratio 633/670 (to no-bleomycin control),[1]; sample 100 mg,1.0
same,Ratio 355/450 (to no-bleomycin control),[1]; sample 500 mg,7.0
same,Ratio 355/515 (to no-bleomycin control),[1]; sample 500 mg,1.3
same,Ratio 355/620 (to no-bleomycin control),[1]; sample 500 mg,2.5
same,Ratio 405/450 (to no-bleomycin control),[1]; sample 500 mg,7.3
same,Ratio 405/515 (to no-bleomycin control),[1]; sample 500 mg,6.6
same,Ratio 488/525 (to no-bleomycin control),[1]; sample 500 mg,2.1
same,Ratio 532/575 (to no-bleomycin control),[1]; sample 500 mg,3.0
same,Ratio 633/670 (to no-bleomycin control),[1]; sample 500 mg,1.1
"Avidin: Avidin from egg white (Sigma); 60,000 m.w. egg-white protein that binds biotin",Avidin per talc surface,[2]; 330 μg/ml Avidin added,1.5 μg/cm2
same,Avidin per talc surface,[2]; 3300 μg/ml Avidin added,33.0 μg/cm2 and 33 μg/cm2
same,Avidin per talc surface,[2]; 6600 μg/ml Avidin added,62.3 μg/cm2
same,Avidin per talc surface,[2]; 19800 μg/ml Avidin added,163.5 μg/cm2
same,Avidin binded with talc,[2]; ID 1: 19800 μg/ml Avidin added,12166.7 µg/mL
same,Avidin in supernatant,[2]; ID 1: 19800 μg/ml Avidin added,"7633.3 μg, ml"
same,Avidin binded with talc,[2]; ID 2: […] Avidin added,7952.7 µg/mL
same,Avidin in supernatant,[2]; ID 2: […] Avidin added,"5247.3 μg, ml"
same,Avidin binded with talc,[2]; ID 3: 6600 μg/ml Avidin added,4631.5 µg/mL
same,Avidin in supernatant,[2]; ID 3: 6600 μg/ml Avidin added,"1968.5 μg, ml"
same,Avidin binded with talc,[2]; ID 4: 3300 μg/ml Avidin added,2452.7 µg/mL
same,Avidin in supernatant,[2]; ID 4: 3300 μg/ml Avidin added,"847.3 μg, ml"
same,Avidin binded with talc,[2]; ID 5: 330 μg/ml Avidin added,110.4 µg/mL
same,Avidin in supernatant,[2]; ID 5: 330 μg/ml Avidin added,"219.6 μg, ml"
same,Avidin per talc surface,[2]; […] Avidin added,106.9 μg/cm2
same,binding to porcine bladder mucosa,[3],bind tightly to porcine bladder mucosa
same,pH at which binding to porcine bladder mucosa is best,[3]; protein free saline,≤ 8.0
same,Saturation of AVIDIN to the combine surface of 100 mg talc,[4]; 198.4 μg Avidin added to 100 mg talc,2.48 μg/cm^2
same,Avidin binded to talc,[4]; 198.4 μg Avidin added to 100 mg talc (0.5 ml),184.7 µg
same,Saturation of AVIDIN to the combine surface of 100 mg talc,[4]; 1650.3 μg Avidin added to 100 mg talc,6.25 μg/cm^2
same,Avidin binded to talc,[4]; 1650.3 μg Avidin added to 100 mg talc (0.5 ml),465.3 µg
same,Amount of Avidin removed by wash,"[4]; 1st wash with EDTA, 198.4 μg Avidin added",15.8 µg/mL
same,Amount of Avidin removed by wash,"[4]; 1st wash with EDTA, 1650.3 μg Avidin added",13.2 µg/mL
same,Amount of Avidin removed by wash,"[4]; 1st wash with PBS, 198.4 μg Avidin added to 100 mg talc",31.4 µg/mL
same,Amount of Avidin removed by wash,"[4]; 1st wash with PBS, 1650.3 μg Avidin added to 100 mg talc",307.4 µg/mL
same,Amount of Avidin removed by wash,"[4]; 2nd wash with EDTA, 198.4 μg Avidin added",19.8 µg/mL
same,Amount of Avidin removed by wash,"[4]; 2nd wash with EDTA, 1650.3 μg Avidin added",12.3 µg/mL
same,Amount of Avidin removed by wash,"[4]; 2nd wash with PBS, 198.4 μg Avidin added",27.6 µg/mL
same,Amount of Avidin removed by wash,"[4]; 2nd wash with PBS, 1650.3 μg Avidin added",67.3 µg/mL
same,Amount of Avidin removed by wash,"[4]; 3rd wash with EDTA, 198.4 μg Avidin added",13 µg/mL
same,Amount of Avidin removed by wash,"[4]; 3rd wash with EDTA, 1650.3 μg Avidin added",13.2 µg/mL
same,Amount of Avidin removed by wash,"[4]; 3rd wash with PBS, 198.4 μg Avidin added",32.7 µg/mL
same,Amount of Avidin removed by wash,"[4]; 3rd wash with PBS, 1650.3 μg Avidin added",40.3 µg/mL
